# Results as given in PubChem BioAssay AID1671190 (National Center for Advancing Translational Sciences (NCATS), 2021).
# Protein sequences, listed by entry. Tags and fused reporters are not part of them. Lines headed by an entry give the natural chain unless they say otherwise; changes in a name come on top.
# UniProt P18054: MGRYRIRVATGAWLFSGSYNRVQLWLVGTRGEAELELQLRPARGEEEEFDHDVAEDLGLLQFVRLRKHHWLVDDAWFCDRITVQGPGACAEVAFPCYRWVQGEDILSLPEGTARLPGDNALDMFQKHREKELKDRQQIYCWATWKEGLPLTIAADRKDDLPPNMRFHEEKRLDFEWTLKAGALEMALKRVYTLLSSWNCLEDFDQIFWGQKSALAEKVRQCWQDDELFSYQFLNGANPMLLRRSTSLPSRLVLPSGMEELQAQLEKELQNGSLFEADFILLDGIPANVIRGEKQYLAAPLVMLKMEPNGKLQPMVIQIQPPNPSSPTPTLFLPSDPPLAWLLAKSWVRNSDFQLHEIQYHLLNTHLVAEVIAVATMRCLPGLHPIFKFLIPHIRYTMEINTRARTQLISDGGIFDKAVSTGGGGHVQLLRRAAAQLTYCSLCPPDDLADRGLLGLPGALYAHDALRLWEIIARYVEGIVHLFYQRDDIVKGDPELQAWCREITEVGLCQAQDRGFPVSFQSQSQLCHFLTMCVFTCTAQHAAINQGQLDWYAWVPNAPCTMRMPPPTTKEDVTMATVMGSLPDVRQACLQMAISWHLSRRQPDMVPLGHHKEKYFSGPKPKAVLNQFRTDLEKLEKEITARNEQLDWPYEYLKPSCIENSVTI
# Hit rate of the full screen: of about 580,000 compounds, about 6,100 (1.1%) were called active. The shares of active, inactive and inconclusive entries below differ from those in the screen. Calls follow the shape of the dose curve; as a rule, active = well fitted inhibition curve with a large enough effect; inconclusive = small, poorly fitted or top-dose-only effect, or another doubt; inactive = no such curve, though single readings can be large or run the other way. Potencies beside an inconclusive call are fits to weak or partial responses and may not hold up.
# Biological target: Polyunsaturated fatty acid lipoxygenase ALOX12 (Homo sapiens) (UniProt P18054)
# Experiment: Primary qHTS assay for inhibitors of human arachidonate 12S-lipoxygenase (ALOX12): Round 2
# Conditions: purified 12hLO, xylenol orange hydroperoxide absorbance; activity change, negative = inhibition: at 108 µM (top of the series) unless noted
# Summary of the method: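 Purified human 12hLO at 150 nM in 25 mM Hepes, 0.01% Triton X-100, pH 7.0, preincubated 15 min at room temperature with compound. Reaction started with 40 uM arachidonic acid, 30 min at room temperature. Hydroperoxide measured by Fe-xylenol orange, 573/405 nm absorbance ratio.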
# % is scaled to controls: 0 for no effect and ±100 for the full control effect; potency is read from the fitted curve at half-maximal effect.
SMILES,Potency,"activity change, negative = inhibition"
O=C(CCc1cc(Cl)no1)N(CCS(=O)(=O)N1CCOCC1)Cc1ccccn1,active: 7.94 µM,–
O=C(Nc1cccc(S(=O)(=O)NCc2ccco2)c1)c1cc(-c2ccccc2)nc2ccccc12,"inconclusive: 35.5 µM [inhibitor, partial curve, poor fit]",–
CCCc1cc(=O)[nH]c(SCc2nc3ccc([N+](=O)[O-])cc3[nH]2)n1,inactive,–
COc1cccc2c1OC1OC2Oc2c(OC)cccc21,"inconclusive: 39.8 µM [inhibitor, partial curve, poor fit]",–
CN(C)c1ccc(NC(=O)c2ccc(C(C)(C)C)cc2)cc1,"inconclusive: 50.1 µM [inhibitor, partial curve, poor fit]",–
CCc1ccc(CN(C(=O)c2cc(=O)c3cc(Cl)ccc3o2)C2CCS(=O)(=O)C2)cc1 (stereo unspecified),"inconclusive: 56.2 µM [inhibitor, partial curve, poor fit]",–
O=C1CC(N2CCN(c3ccc(Cl)cc3)CC2)C(=O)N1c1ccc(F)cc1 (stereo unspecified),inactive,–
Cc1ccc(OCc2nc(C3CCCN3C(=O)c3sc(C)nc3C)no2)cc1 (stereo unspecified),inactive,–
Cc1cccc(NC(=O)CN(C)C(=O)C2CCN(c3ccc(C#N)cn3)CC2)c1C,inactive,–
Cc1ccc(C(CCNCCN(C)C)C2CCOC(C)(C)C2)cc1 (stereo unspecified),"inconclusive: 0.251 µM [inhibitor, full curve, poor fit]",–
Cc1ccc(C(C)C)c(OCC(O)CN(C)Cc2ccccc2)c1 (stereo unspecified),"inconclusive: 126 µM [inhibitor, single point]",–
Cc1cc(C)c2sc(N3CCN(C(=O)C4CC4)CC3)nc2c1,"inconclusive: 56.2 µM [inhibitor, partial curve, poor fit]",–
O=C(CSc1ccc2nnc(-c3ccccn3)n2n1)Nc1nccs1,"inconclusive: 10 µM [inhibitor, partial curve, poor fit]",–
Cc1ccc(-n2c3c(cc(C(=O)NCc4ccco4)c2=O)C(=O)CCC3)cc1,inactive,–
O=C(NCC1CCCO1)c1cccc(Oc2ccccc2)c1 (stereo unspecified),"inconclusive: 63.1 µM [inhibitor, partial curve, poor fit]",–
COc1ccc(-n2cnc3cccnc32)cc1,inactive,–
CCOC(=O)n1cc(-c2cnc(CNC(=O)C(C)(c3ccccc3)c3ccccc3)o2)c2ccccc21,"inconclusive: 89.1 µM [inhibitor, single point]",–
CCOC(=O)c1nc(NCc2cc(OC)ccc2OC)c2ccccc2n1,"inconclusive: 3.98 µM [inhibitor, full curve]",–
Cc1cccc(C)c1-n1nnnc1C1c2ccccc2C(=O)N1CCC(C)C (stereo unspecified),"inconclusive: 70.8 µM [inhibitor, partial curve, poor fit]",–
CC(C)Cn1c(SCC(=O)NC2CCCc3ccccc32)nc(O)cc1=O (stereo unspecified),"inconclusive: 79.4 µM [inhibitor, partial curve, poor fit]",–
O=C1NN(c2ccc(Br)cc2)C(=O)/C1=C\c1ccc(O)cc1O,active: 39.8 µM,–
CCc1ccc2ncc3c(-c4ccc(C)cc4)nn(CC(=O)Nc4ccc(C)cc4)c3c2c1,"inconclusive: 100 µM [inhibitor, partial curve, poor fit]",–
COc1cccc(CC(=O)Nc2cc(C(F)(F)F)ccc2N2CCCC2)c1,inactive,–
CCn1c(SCC(=O)N2CCCC2)nnc1-c1ccc(N)cc1,"inconclusive: 50.1 µM [inhibitor, partial curve, poor fit]",–

SMILES,Potency,"activity change, negative = inhibition"
CC(=O)Nc1ccc(N(C(=O)c2ccco2)C(C(=O)NC2CCCC2)c2ccc(N3CCOCC3)cc2)cc1 (stereo unspecified),inactive,–
Oc1ccc2oc3c(c2c1C=NCc1ccncc1)CCCC3,"inconclusive: 31.6 µM [inhibitor, single point]",–
O=C(NCCc1ccc(O)c(O)c1)C1COc2ccccc2O1 (stereo unspecified),"inconclusive: 39.8 µM [inhibitor, partial curve, poor fit]",–
Cc1ccc(NC(=O)C(C)OC(=O)/C=C/c2ccccc2)cc1S(=O)(=O)N1CCOCC1 (stereo unspecified),"inconclusive: 100 µM [inhibitor, partial curve, poor fit]",–
COCc1nnc(NC(=O)C2CC(=O)N(c3cccc(C)c3)C2)s1 (stereo unspecified),inactive,–
Oc1ccc2ccccc2c1/C=N/c1nc2c(s1)CCCC2,"inconclusive: 50.1 µM [inhibitor, partial curve, poor fit]",–
Cc1ccn2c(Nc3ccc4c(c3)OCO4)c(-c3ccccn3)nc2c1,inactive,–
NCCCS(=O)(=O)O,"inconclusive: 31.6 µM [inhibitor, partial curve, poor fit]",–
Cc1cc(C)n(CC(=O)NNC(=O)COc2ccc(F)cc2Br)n1,inactive,–
Cc1ccc(-n2c(=O)c3ccc(C(=O)NCc4ccco4)cc3n(Cc3ccc(Cl)cc3)c2=O)cc1,–,inconclusive: -44.3% [inhibitor]
CC(O)CNc1nc2c(c(=O)n(C)c(=O)n2C)n1Cc1ccccc1 (stereo unspecified),inactive,–
Cc1ccc(CN2CCC(N3CC4CCCN4C3=O)CC2)cc1 (stereo unspecified),inactive,–
CCOC(=O)N1CCN(Cc2nc3cc(NC(=O)c4ccccc4OC)ccc3n2C(C)C)CC1,"inconclusive: 6.31 µM [inhibitor, full curve, poor fit]",–
Cc1ccc2c(c1)N(S(=O)(=O)c1ccc3c(c1)NC(=O)CC(=O)N3)CCO2,"inconclusive: 126 µM [inhibitor, partial curve, poor fit]",–
CC(Sc1n[nH]c(-c2cccs2)n1)C(=O)Nc1ccc(F)cc1F (stereo unspecified),inactive,–
CN(C)C(=O)C1Cc2ccccc2CN1S(=O)(=O)c1cccs1 (stereo unspecified),"inconclusive: 100 µM [inhibitor, partial curve, poor fit]",–
COc1ccc(-c2cc(C(=O)NC(C)(CO)CO)c3ccccc3n2)cc1,"inconclusive: 63.1 µM [inhibitor, partial curve, poor fit]",–
CN1C(=O)NC(c2ccccc2)C2=C1CN(c1ccc3ccccc3c1)C2=O (stereo unspecified),"inconclusive: 20 µM [inhibitor, partial curve, poor fit]",–
COc1ccc(Oc2ccccc2/C=C/C(=O)O)cc1,"inconclusive: 1.78 µM [inhibitor, full curve, poor fit]",–
CC(C)(C)NC(=O)NC(=O)Cn1cc(C(F)(F)F)ccc1=O,inactive,–
COCCNC(=O)c1ccc(CSCc2cccc(Cl)c2)o1,inactive,–
Cc1ccsc1C(=O)N(Cc1ccccn1)C1CC1,inactive,–
Oc1c(C=Nc2ccccc2)sc2ccccc12,"inconclusive: 39.8 µM [inhibitor, partial curve, poor fit]",–
CCCN(CC(=O)Nc1ccc(F)c(F)c1F)C(=O)c1ccc(=O)n(Cc2ccccc2)n1,"inconclusive: 35.5 µM [inhibitor, single point]",–

# Full records as entered above.
# CC(C)(C)NC(=O)NC(=O)Cn1cc(C(F)(F)F)ccc1=O in the list: Potency: inactive
# COCCNC(=O)c1ccc(CSCc2cccc(Cl)c2)o1 in the list: Potency: inactive
# COc1ccc(-c2cc(C(=O)NC(C)(CO)CO)c3ccccc3n2)cc1 in the list: Potency: inconclusive: 63.1 µM [inhibitor, partial curve, poor fit]
# CN(C)C(=O)C1Cc2ccccc2CN1S(=O)(=O)c1cccs1 (stereo unspecified) in the list: Potency: inconclusive: 100 µM [inhibitor, partial curve, poor fit]

# Continued:

SMILES,Potency,"activity change, negative = inhibition"
COc1ccc(Cl)cc1C(=O)NCC#N,"inconclusive: 56.2 µM [inhibitor, single point]",–
CCOc1cc(/C=C2/NC(=O)NC2=O)cc(Cl)c1O,"inconclusive: 126 µM [inhibitor, partial curve, poor fit]",–
COCCn1c(SCC(=O)N2CCOCC2)nc2ccccc2c1=O,inactive,–
CCc1ccc(OCC(=O)Nc2ccc(SCc3cc(=O)n4c(ncn4C(C)C)n3)cc2)cc1,inactive,–
O=C(NCCn1cc(C2CCCNC2)nn1)c1ccc(F)cc1 (stereo unspecified),"inconclusive: 7.08 µM [inhibitor, full curve, poor fit]",–
O=C(C1COc2cc(S(=O)(=O)NCc3ccc(Cl)cc3)ccc2O1)N1CCCCCC1 (stereo unspecified),inactive,–
O=C(N[C@H]1CO[C@H]2[C@@H]1OC[C@@H]2n1nnnc1Oc1ccc(-n2cncn2)cc1)C1CCCCC1,inactive,–
CNC[C@@H]1OCc2ccccc2-c2c(n(C)c3ccccc23)C(=O)N([C@H](C)CO)C[C@@H]1C,"inconclusive: 39.8 µM [inhibitor, partial curve]",–
CC(C)N(Cc1ccccc1)C(=O)COC(=O)c1cc(Br)ccc1Cl,inactive,–
CCN(CC)c1ccc(NC(=O)COC(=O)CCC(=O)c2ccc(F)cc2)cc1,"inconclusive: 3.98 µM [inhibitor, single point]",–
CCCn1c(Sc2ccc(C)cc2)nc2c1c(=O)[nH]c(=O)n2C,inactive,–
COc1ccccc1NC(=O)Nc1nc(C(C)(C)C)cs1,inactive,–
Cc1cccc(NC(=O)/C(=C\c2ccco2)NC(=O)c2cccs2)c1,"inconclusive: 39.8 µM [inhibitor, partial curve, poor fit]",–
N#Cc1cc2[nH]c3ccccc3c2[n+](-c2ccc([N+](=O)[O-])cc2)c1N,inactive,–
CC(=O)NC(=S)NNC(=O)c1ccc(C(C)(C)C)cc1,inactive,–
O=C(c1ccc(Cn2cnnn2)cc1)N1CCCC(Nc2ccc(F)cc2)C1 (stereo unspecified),"inconclusive: 112 µM [inhibitor, single point]",–
CCC(OC(=O)c1cccs1)C(=O)NCc1ccc(C)cc1 (stereo unspecified),inactive,–
CCOc1ccccc1-n1c(SCC(=O)Nc2nccs2)nnc1-c1ccoc1C,"inconclusive: 141 µM [inhibitor, single point]",–
COc1ccc(NC(=O)C(c2ccc(OC)cc2)N(C)C(=O)CNC(C)=O)cc1 (stereo unspecified),inactive,–
CC(=O)c1cccc(NC(=S)NCCSc2ccc(Cl)cc2)c1,"inconclusive: 44.7 µM [inhibitor, partial curve, poor fit]",–
COc1ccc(F)cc1C(=O)C1CCCN(Cc2ccc(Oc3ncccn3)cc2)C1 (stereo unspecified),inactive,–
CN1CC(=O)N(C2CCCNCC2)Cc2c1ncnc2N1CCCC(O)C1 (stereo unspecified),"inconclusive: 5.01 µM [inhibitor, full curve]",–
O=S(=O)(NCc1ccccc1Cn1cccn1)N1CCOCC1,"inconclusive: 0.631 µM [inhibitor, full curve, poor fit]",–

# A different layout for part of the listing above.
SMILES | Potency | activity change, negative = inhibition
CCc1ccc(OCC(=O)Nc2ccc(SCc3cc(=O)n4c(ncn4C(C)C)n3)cc2)cc1 | inactive | –
O=C(NCCn1cc(C2CCCNC2)nn1)c1ccc(F)cc1 (stereo unspecified) | inconclusive: 7.08 µM [inhibitor, full curve, poor fit] | –
